For experiment [1], the target named is T1, Flag-PLK4 wt (polo-like kinase 4), full-length (human) (UniProt O00444).
T1 sequence: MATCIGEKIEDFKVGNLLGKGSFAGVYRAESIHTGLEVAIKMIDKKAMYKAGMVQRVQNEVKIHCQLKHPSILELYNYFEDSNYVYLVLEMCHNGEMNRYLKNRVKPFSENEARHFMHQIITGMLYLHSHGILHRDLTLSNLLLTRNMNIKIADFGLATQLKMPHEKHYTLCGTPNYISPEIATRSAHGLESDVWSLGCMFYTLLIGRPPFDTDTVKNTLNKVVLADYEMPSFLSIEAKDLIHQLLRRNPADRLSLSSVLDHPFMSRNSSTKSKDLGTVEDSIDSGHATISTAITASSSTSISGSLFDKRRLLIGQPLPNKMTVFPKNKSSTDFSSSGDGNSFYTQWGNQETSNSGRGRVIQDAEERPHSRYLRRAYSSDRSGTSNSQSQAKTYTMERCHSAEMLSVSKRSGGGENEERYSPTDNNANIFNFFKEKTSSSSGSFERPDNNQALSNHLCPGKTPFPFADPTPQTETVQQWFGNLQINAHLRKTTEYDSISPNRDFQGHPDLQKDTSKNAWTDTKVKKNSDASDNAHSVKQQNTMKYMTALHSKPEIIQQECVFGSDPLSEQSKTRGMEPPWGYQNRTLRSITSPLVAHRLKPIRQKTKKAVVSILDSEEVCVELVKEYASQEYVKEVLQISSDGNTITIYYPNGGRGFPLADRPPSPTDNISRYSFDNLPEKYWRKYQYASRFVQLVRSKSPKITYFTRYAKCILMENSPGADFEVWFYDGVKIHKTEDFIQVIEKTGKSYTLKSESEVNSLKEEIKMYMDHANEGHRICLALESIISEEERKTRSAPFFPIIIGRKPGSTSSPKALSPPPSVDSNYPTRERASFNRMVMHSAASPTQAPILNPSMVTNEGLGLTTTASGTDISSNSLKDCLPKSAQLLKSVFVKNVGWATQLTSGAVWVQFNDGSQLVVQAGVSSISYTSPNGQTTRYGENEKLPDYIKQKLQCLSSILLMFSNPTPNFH
Put plainly: co-IP; Flag-tagged protein overexpressed in HEK293T; 3-6 mg cell extract in NP-40 buffer with α-Flag M2 beads, 3 h or overnight at 4°C, 3x Flag peptide elution, Western blot; also cells synchronized in G1/S or G2, siRNA against PLK4, or λ-phosphatase treatment of the immunoprecipitate.

Sequences of proteins named here, by UniProt entry; tags and fusion partners are left off.
UniProt O94986: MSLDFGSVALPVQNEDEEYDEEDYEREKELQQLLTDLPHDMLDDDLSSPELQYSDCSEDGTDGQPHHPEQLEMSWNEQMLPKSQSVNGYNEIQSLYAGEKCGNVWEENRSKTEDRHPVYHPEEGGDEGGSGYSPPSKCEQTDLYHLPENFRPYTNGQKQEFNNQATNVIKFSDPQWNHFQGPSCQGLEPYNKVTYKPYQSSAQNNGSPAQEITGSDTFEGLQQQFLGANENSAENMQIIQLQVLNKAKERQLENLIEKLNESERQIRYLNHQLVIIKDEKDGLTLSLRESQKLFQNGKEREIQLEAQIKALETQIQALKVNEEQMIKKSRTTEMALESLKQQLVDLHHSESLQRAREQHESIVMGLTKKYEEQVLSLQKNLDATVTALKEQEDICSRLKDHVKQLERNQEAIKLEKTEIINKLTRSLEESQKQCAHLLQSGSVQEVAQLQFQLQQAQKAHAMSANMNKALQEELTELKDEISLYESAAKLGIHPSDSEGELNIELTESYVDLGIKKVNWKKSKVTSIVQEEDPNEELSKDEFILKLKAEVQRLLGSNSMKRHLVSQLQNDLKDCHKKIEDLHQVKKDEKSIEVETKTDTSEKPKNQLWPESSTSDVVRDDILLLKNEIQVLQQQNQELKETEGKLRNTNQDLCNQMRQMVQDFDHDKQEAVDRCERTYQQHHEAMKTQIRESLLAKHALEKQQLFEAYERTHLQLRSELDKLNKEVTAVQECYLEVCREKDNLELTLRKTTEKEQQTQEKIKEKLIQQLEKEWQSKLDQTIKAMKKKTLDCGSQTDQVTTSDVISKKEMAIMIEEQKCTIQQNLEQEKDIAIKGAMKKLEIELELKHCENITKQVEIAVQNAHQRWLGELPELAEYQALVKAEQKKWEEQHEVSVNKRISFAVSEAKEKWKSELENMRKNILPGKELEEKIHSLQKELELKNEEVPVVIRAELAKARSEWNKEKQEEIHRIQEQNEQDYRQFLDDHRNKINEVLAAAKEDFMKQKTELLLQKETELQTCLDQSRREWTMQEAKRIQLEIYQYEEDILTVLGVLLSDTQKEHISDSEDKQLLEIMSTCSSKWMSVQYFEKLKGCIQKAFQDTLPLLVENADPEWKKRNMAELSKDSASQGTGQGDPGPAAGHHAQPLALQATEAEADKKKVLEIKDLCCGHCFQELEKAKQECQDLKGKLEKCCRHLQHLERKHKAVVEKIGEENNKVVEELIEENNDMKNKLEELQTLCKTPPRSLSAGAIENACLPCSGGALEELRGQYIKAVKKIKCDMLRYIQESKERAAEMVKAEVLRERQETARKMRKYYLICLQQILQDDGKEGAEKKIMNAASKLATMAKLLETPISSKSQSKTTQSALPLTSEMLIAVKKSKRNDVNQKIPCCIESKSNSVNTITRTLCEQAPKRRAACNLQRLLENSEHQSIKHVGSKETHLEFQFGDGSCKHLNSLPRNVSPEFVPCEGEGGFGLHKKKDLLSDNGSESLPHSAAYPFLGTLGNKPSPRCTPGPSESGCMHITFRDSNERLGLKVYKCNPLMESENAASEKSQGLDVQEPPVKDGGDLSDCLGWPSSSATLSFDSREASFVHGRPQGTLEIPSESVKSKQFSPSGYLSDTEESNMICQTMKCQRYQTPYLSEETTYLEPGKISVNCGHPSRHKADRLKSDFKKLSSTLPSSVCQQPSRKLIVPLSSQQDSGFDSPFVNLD
UniProt Q9Y4B6: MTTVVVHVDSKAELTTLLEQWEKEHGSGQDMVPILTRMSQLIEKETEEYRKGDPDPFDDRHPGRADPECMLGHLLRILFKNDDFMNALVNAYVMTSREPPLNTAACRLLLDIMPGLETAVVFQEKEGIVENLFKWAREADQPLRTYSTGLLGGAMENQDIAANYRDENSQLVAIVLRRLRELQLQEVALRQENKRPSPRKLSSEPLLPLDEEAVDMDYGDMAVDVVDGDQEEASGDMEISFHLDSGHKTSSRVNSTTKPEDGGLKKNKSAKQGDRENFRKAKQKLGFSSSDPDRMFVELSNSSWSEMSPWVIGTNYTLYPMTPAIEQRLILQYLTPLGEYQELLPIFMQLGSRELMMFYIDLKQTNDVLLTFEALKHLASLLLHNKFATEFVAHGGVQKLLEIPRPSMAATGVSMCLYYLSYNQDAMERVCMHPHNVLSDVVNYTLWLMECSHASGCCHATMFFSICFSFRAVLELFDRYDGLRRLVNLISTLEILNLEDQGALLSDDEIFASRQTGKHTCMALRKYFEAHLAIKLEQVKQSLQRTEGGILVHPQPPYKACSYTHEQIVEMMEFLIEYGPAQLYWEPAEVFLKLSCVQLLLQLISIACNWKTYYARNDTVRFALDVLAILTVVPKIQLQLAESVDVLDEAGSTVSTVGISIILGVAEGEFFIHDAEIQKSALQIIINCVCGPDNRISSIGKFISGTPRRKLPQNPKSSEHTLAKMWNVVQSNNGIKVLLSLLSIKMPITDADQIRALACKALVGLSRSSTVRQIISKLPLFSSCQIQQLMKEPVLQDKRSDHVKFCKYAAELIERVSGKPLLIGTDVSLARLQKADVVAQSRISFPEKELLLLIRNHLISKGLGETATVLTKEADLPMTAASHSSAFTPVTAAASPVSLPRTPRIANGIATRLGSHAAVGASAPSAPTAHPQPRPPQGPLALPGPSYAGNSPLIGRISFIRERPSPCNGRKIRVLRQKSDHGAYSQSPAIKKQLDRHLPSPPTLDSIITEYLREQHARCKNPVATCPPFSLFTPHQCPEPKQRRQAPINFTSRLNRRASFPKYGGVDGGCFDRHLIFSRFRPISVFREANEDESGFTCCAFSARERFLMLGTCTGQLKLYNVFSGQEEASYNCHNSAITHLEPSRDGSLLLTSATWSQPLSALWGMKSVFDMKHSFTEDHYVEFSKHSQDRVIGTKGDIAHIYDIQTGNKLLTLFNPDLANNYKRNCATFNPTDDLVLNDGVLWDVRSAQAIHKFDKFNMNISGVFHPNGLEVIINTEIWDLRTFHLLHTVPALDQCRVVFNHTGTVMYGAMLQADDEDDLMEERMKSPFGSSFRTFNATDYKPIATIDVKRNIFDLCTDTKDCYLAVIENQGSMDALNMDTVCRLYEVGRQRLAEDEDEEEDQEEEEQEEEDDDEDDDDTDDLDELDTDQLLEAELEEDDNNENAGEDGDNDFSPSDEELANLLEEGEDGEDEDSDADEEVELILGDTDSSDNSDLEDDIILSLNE
UniProt O95071: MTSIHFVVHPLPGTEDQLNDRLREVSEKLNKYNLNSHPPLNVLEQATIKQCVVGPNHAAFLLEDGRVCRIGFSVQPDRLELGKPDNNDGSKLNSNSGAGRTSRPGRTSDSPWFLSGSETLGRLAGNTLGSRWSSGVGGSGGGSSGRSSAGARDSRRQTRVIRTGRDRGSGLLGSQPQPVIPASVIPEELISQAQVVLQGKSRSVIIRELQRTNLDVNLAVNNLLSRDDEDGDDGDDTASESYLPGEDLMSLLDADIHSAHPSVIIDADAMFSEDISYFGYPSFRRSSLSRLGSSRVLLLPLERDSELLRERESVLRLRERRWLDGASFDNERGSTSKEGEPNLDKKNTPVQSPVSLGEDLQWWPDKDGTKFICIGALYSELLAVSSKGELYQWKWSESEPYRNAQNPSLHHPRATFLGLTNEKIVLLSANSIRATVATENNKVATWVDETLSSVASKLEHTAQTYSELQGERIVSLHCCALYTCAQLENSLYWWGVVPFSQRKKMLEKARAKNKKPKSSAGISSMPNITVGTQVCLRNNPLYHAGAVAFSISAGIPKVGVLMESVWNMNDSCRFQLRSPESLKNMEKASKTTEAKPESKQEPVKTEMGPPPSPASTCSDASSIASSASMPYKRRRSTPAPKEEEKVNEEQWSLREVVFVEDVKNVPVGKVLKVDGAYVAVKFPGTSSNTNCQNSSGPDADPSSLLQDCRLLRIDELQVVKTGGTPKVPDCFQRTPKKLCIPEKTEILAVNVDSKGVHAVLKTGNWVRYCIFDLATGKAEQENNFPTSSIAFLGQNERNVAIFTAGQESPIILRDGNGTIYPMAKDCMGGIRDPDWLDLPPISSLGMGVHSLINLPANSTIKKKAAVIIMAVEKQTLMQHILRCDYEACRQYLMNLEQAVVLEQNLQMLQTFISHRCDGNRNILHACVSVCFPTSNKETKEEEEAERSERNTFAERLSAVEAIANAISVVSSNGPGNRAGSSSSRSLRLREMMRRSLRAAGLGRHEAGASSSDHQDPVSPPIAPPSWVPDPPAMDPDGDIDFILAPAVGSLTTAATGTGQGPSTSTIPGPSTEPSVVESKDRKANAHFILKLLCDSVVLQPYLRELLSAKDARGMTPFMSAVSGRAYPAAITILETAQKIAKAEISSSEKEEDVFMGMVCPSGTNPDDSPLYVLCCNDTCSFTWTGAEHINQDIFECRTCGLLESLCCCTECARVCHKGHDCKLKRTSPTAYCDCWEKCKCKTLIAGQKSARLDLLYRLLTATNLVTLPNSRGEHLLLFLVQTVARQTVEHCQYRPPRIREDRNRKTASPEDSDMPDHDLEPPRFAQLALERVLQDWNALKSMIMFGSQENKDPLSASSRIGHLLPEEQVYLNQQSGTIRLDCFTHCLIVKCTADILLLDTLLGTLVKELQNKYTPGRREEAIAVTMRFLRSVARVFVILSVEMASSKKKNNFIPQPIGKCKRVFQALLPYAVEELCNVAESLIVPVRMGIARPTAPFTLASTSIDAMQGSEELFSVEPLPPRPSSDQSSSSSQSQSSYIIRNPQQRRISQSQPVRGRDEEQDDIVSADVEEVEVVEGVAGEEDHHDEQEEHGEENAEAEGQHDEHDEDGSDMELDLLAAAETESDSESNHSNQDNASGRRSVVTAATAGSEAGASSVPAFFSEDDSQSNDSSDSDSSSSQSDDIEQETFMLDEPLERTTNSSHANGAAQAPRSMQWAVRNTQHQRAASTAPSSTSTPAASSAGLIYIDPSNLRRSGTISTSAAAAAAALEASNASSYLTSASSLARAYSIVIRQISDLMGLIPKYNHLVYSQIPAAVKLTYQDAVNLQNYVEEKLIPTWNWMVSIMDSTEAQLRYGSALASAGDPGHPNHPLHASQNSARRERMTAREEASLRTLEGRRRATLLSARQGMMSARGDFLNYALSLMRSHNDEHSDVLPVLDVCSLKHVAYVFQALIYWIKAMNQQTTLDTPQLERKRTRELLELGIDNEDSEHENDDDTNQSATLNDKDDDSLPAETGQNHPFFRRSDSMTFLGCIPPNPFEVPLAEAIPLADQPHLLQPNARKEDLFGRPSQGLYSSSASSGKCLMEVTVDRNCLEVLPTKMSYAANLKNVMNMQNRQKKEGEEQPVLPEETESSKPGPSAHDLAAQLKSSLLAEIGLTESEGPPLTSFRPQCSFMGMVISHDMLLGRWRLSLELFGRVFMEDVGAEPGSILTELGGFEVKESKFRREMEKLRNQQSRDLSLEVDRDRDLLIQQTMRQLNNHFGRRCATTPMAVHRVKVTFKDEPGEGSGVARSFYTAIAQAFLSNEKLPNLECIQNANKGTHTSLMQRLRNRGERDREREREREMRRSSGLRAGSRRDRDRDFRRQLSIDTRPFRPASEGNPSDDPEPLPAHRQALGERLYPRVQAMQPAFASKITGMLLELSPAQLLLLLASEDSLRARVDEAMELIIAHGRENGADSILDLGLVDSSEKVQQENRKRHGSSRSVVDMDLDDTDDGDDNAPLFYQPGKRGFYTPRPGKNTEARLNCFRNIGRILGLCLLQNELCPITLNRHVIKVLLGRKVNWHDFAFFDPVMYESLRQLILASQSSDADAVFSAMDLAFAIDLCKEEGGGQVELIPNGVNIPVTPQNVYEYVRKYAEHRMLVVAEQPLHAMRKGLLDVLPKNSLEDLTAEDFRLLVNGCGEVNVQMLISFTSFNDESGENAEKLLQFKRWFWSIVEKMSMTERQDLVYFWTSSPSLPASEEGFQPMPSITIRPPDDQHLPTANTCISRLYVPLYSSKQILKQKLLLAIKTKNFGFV

Experiment [2] deals with T1, Flag-PLK4 wt (polo-like kinase 4), full-length (human). Put plainly: co-IP; competition: Flag-PLK4 overexpressed in HEK293T together with increasing amounts of Myc-DCAF1 plasmid DNA (+ to ++++) for 48 h; IP against the Flag tag, Western blot. Background: Immunoblotting shows a protein as a band on a membrane.
Experiment [3] has the same target. Put plainly: co-IP; Flag-PLK4 overexpressed in HEK293T cells arrested in M phase by single thymidine and nocodazole; α-Flag M2 beads, Western blot.
Experiment [4] concerns the target T2, Flag-PLK4 K41R (kinase-dead) (human) (UniProt O00444).
T2 sequence: T1 sequence with K41R
Put plainly: co-IP; Flag-tagged protein overexpressed in HEK293T; 3-6 mg cell extract in NP-40 buffer with α-Flag M2 beads, 3 h or overnight at 4°C, 3x Flag peptide elution, Western blot; also cells synchronized in G1/S or G2, siRNA against PLK4, or λ-phosphatase treatment of the immunoprecipitate.

In experiment [5] the target is T3, Flag-PLK4-AA (S285A + T289A), β-TrCP-binding mutant (human) (UniProt O00444).
T3 sequence: T1 sequence with S285A, T289A
The experiment is described as above.

Experiment [6] concerns the target T1, Flag-PLK4 wt (polo-like kinase 4), full-length (human). Put plainly: co-IP; sequential: Flag-PLK4 and HA-DCAF1 overexpressed in HEK293T; IP against the Flag tag, Flag peptide elution, then IP against the HA tag from the eluates, Western blot.

Changes are numbered by the printed parent chain. Results are given in words; binding and its absence hold for the method and conditions named. Binding seen in cells or lysates may run through a third protein. Some results given as binding are weak or reduced against the parent protein; the word gives no strength. Where a sequence is shown, tags or fusion partners need not be part of it.

With “CEP152, endogenous (from UniProt O94986 1-1710)”, the binding result in experiment [1] and in experiment [2] was “binds” throughout.
For the substance “DCAF1 (VprBP), endogenous (from UniProt Q9Y4B6 1-1507)”, the binding result in experiment [3] is recorded as “binds weakly”; in experiment [4], “binds”; in experiment [5], “binds”; in experiment [1], “binds”.
For “DDB1 (DNA damage-binding protein 1), endogenous (from UniProt Q16531 1-1140)”, the binding entry in experiment [1] and in experiment [6] was “binds” each time.
Turning to HA-DCAF1 (from UniProt Q9Y4B6 1-1507), the binding entry in experiment [6] is on record as “binds”.
On to Myc-DCAF1 (from UniProt Q9Y4B6 1-1507), for which, in experiment [2], the binding entry is recorded as “binds”.
With “UBR5/EDD, endogenous (from UniProt O95071 1-2799)”, the binding entry in experiment [6] was “no binding”.

Source of the values: paper PMC10942865.
